# Literature values as cited in patent US20170354706A1, “HYBRID PROTEINACEOUS MOLECULE CAPABLE OF INHIBITING AT LEAST ONE ANTIBIOTIC AND PHARMACEUTICAL COMPOSITION CONTAINING IT” (priority 2014, published 2017).
# Some results were stated once for a whole list of compounds, not compound by compound.
# Conditions: patients receiving antibiotic therapy; cited from earlier work
compound,measurement,value
CC[C@H]1OC(=O)[C@H](C)[C@@H](O[C@H]2C[C@@](C)(OC)[C@@H](O)[C@H](C)O2)[C@H](C)[C@@H](O[C@@H]2O[C@H](C)C[C@H](N(C)C)[C@H]2O)[C@](C)(OC)C[C@@H](C)C(=O)[C@H](C)[C@@H](O)[C@]1(C)O [clarithromycin],Patients with acute diarrhoea induced by antibiotics,2-5%
